Experimental data from patent US20200207989A1, “FLUORESCENT PROBE FOR ALDH3A1 DETECTION” (The University of Tokyo, priority 2016, published 2020).
For at least one compound, name, drawing or mass did not settle the structure.

Key:
ALDH1A1 = biological target: T1, ALDH1A1 (Homo sapiens, UniProt P00352); experiment: Reactivity of probes to recombinant ALDH1A1 (UPLC/MS/MS detection of aldehyde and carboxylic acid forms); assay type: biochemical; settings: 10-100 nM ALDH, 10-80 μM compound, Tris buffer pH 7.5, 30 minutes at 37° C.; ◯/X not defined by a legend
T1 construct: purchased
T1 sequence (P00352 1-501): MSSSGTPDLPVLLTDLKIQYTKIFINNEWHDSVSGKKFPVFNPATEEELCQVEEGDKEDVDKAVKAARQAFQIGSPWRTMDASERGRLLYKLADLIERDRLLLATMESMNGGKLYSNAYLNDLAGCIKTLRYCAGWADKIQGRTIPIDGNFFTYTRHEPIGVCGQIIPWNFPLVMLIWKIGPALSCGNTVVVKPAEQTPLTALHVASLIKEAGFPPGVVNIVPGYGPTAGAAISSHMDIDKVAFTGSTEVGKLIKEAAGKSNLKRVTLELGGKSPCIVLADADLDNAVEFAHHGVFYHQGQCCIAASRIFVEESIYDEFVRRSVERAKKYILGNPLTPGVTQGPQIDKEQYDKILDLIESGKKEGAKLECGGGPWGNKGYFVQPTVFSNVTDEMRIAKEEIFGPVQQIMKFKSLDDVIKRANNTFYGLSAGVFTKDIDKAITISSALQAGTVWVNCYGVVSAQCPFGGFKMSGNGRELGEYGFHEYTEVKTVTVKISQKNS
Description: (§1) Human recombinant ALDH1A1/1A3/3A1 was purchased, and 100 mM of KCL, 2 mM of DTT, 1 mM of NAD(P), 10-100 nM of each ALDH, and 10-80 μM of each compound were mixed in Tris buffer (100 mM, pH 7.5), reacted for 30 minutes at 37° C., an equal amount of acetonitrile added, and the reaction stopped. The reaction solution was analyzed by UPLC/MS/MS (Waters). The UPCL chromatogram was carried out over five minutes at a flow rate of 800 μL/min by a linear gradient from 5% acetonitrile 0.01 M ammonium formate/water to 95% acetonitrile 0.01 M ammonium formate/water. An aldehyde-form and carboxylic acid-form probe were detected by the absorbance at a wavelength of 504 nm, and m/z of the MS spectrum at each peak was confirmed to agree with the expected m/z.

ALDH1A3 = biological target: T2, ALDH1A3 (Homo sapiens, UniProt P47895); experiment: Reactivity of probes to recombinant ALDH1A3 (UPLC/MS/MS); assay type: biochemical; settings: 10-100 nM ALDH, 10-80 μM compound, Tris buffer pH 7.5, 30 minutes at 37° C.; ◯/X not defined by a legend
T2 construct: purchased
T2 sequence (P47895 1-512): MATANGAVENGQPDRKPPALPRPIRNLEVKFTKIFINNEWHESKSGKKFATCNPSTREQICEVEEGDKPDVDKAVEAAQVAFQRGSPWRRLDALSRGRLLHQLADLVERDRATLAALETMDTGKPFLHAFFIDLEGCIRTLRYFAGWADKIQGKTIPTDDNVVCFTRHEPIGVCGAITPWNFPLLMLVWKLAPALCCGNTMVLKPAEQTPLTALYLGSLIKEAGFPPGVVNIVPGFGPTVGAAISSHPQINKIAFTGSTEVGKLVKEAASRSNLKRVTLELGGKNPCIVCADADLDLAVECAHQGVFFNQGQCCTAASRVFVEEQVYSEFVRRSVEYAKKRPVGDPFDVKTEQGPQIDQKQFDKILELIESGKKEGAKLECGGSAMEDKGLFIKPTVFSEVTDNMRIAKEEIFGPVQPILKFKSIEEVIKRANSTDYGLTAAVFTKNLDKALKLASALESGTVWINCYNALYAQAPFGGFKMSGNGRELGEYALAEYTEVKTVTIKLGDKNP
Description: as §1, with “formate/water.” for “formate/water. An aldehyde-form and carboxylic acid-form probe were detected by the absorbance at a wavelength of 504 nm, and m/z of the MS spectrum at each peak was confirmed to agree with the expected m/z.”

ALDH3A1 = biological target: T3, ALDH3A1 (Homo sapiens, UniProt P30838); experiment: Reactivity of probes to recombinant ALDH3A1 (UPLC/MS/MS); assay type: biochemical; settings: 10-100 nM ALDH, 10-80 μM compound, Tris buffer pH 7.5, 30 minutes at 37° C.; ◯/X not defined by a legend
T3 construct: purchased
T3 sequence (P30838 1-453): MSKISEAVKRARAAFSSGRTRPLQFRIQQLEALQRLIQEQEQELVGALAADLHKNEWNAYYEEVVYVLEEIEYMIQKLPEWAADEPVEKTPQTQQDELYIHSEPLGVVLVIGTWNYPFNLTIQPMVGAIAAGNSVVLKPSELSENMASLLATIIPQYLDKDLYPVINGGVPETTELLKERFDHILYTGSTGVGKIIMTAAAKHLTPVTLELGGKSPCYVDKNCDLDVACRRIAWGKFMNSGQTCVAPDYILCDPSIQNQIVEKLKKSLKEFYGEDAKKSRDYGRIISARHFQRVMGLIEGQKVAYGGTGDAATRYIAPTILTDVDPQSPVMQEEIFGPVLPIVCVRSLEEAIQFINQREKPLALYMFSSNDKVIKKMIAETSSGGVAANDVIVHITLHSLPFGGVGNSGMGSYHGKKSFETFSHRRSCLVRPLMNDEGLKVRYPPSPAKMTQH
Description: as §1, with “formate/water.” for “formate/water. An aldehyde-form and carboxylic acid-form probe were detected by the absorbance at a wavelength of 504 nm, and m/z of the MS spectrum at each peak was confirmed to agree with the expected m/z.”

[1] = HPLC (LC/MS) retention time as measure of hydrophilicity / membrane permeability; assay type: physicochemical; settings: C18 column, 20% B 2.5 min, 20%-->100% B 5 min, 500 μL/min, neutral conditions, mean±SD of three tests
Description: In the present invention, it is preferable to use the retention time on an HPLC chromatogram as the measure of hydrophilicity.
HPLC conditions: taking solvent A to be 0.01 M ammonium formate/water and solvent B to be 80% acetonitrile 0.01 M ammonium formate/water, chromatography is carried out under conditions of 20% solvent B for 2.5 minutes followed by a 5-minute linear gradient of solvent B from 20% to 100% (flow rate 500 μL/min).
A C18 column (HP 3 μm, inner diameter: 2.1 mm, length: 150 mm, GL Science), for example, can be used suitably as the column.
The water solubility was verified by LC/MS under neutral conditions to compare the membrane permeability of the five probes produced above and ALDEFLUOR. The reaction was stopped after advancing the reaction to the point that each probe was present as both a carboxylic acid form and an aldehyde form using a suitable isoform and concentration of ALDH, and analysis was conducted by LC/MS (Agilent 1200/6130 quadrupole LC/MS system). A C18 column (HP 3 μm, inner diameter: 2.1 mm, length: 150 mm, GL Science) was used as the column. HPLC chromatograms were carried out by 20% B for 2.5 minutes followed by a five-minute linear gradient (flow rate: 500 μL/min) from 20% to 100% B, taking solvent A to be 0.01 M ammonium formate/water and solvent B to be 80% acetonitrile 0.01 M ammonium formate/water. The probe containing BODIPY was detected by the absorbance at a wavelength of 504 nm and the probe containing TG at a wavelength of 495 nm, and m/z of the MS spectrum at each peak was confirmed to agree with the expected m/z. Three independent tests were run, and the mean±SD was calculated. […] Given that imaging of probe 1 was not successful, there was thought to be a threshold at which the membrane permeability changes rapidly between this 6.741 minutes and 7.098 minutes (band in FIG. 2).

For `CCN(CCNC(=O)c1ccc(-c2c3ccc(=O)cc-3oc3cc(O)ccc23)c(C)c1)c1ccc(C=O)cc1` [Probe 4, 2-(N-ethyl-N-(4-formylphenyl)amino)ethyl-3-methyl-4-(6-hydroxyxanthen-3-on-9-yl)-benzamide], the “Reactivity to ALDH1A1” value (ALDH1A1) was “presented absolutely no reactivity”, the “Reactivity to ALDH1A3” value (ALDH1A3) was “presented absolutely no reactivity” and the “Reactivity to ALDH3A1” value (ALDH3A1) was “presented absolutely no reactivity”. For the same compound, the “Retention Time, Aldehyde form” value [1] was 7.418 ± 0.001 min and the “Retention Time, Aldehyde form” value ([1]; listed as probe 4) was “in the lower 7 minutes”.
